Reference: the supplement of paper PMC4635364
The list shows a part of the results. Single values are uncertain here, since repeats match poorly.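 Human fetal ventral-midbrain neural progenitor line ReNCell VM, differentiated without mitogens. Images stained for doublecortin (early neurons) or tyrosine hydroxylase (dopaminergic neurons) were scored by blinded raters against untreated wells (0 = no change). Repeats and both raters were averaged, and compounds averaging 2 or higher were picked as hits for retesting.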

Key:
ReNCell VM [1] = assay: neuronal differentiation score (DCX+ cell fraction vs untreated, manual image score) (score (-3 to 3)); higher = more neuronal differentiation; conditions: 2 uM, 2 weeks
ReNCell VM [2] = assay: dopaminergic neuron differentiation score (TH+ cell fraction vs untreated, manual image score) (score (0 to 3)); higher = more TH+ dopaminergic neuron differentiation; conditions: 2 uM, 4 weeks, BDNF 10 ng/ml + GDNF 10 ng/ml

CCC1=C[C@H]2CN3CCc4c([nH]c5ccccc45)[C@](C(=O)OC)(C2)[C@H]13 [Catharanthine]
inactive: neuronal differentiation score (ReNCell VM [1]; library: Phytochemical) 0 | neuronal differentiation score (ReNCell VM [1]; library: Prestwick) 0 | dopaminergic neuron differentiation score (ReNCell VM [2]; library: Phytochemical) 0 | dopaminergic neuron differentiation score (ReNCell VM [2]; library: Prestwick) 0

c1ccc2c(c1)[I+]c1ccccc1-2 [Diphenyleneiodonium chloride]
inactive: neuronal differentiation score (ReNCell VM [1]; library: LOPAC) 0 | neuronal differentiation score (ReNCell VM [1]; library: Tocriscreen) 0 | dopaminergic neuron differentiation score (ReNCell VM [2]; library: LOPAC) 0 | dopaminergic neuron differentiation score (ReNCell VM [2]; library: Tocriscreen) 0

C=C(C)[C@H]1Cc2c(ccc3c2O[C@@H]2COc4cc(OC)c(OC)cc4[C@@H]2C3=O)O1 [Rotenone]
inactive: neuronal differentiation score (ReNCell VM [1]; library: LOPAC) 0 | neuronal differentiation score (ReNCell VM [1]; library: Phytochemical) 0 | dopaminergic neuron differentiation score (ReNCell VM [2]; library: LOPAC) 0 | dopaminergic neuron differentiation score (ReNCell VM [2]; library: Phytochemical) 0

CN1C[C@H](CNC(=O)OCc2ccccc2)C[C@@H]2c3cccc4c3c(cn4C)C[C@H]21 [Metergoline]
inactive: neuronal differentiation score (ReNCell VM [1]; library: LOPAC) 0 | neuronal differentiation score (ReNCell VM [1]; library: Prestwick) 0 | neuronal differentiation score (ReNCell VM [1]; library: Tocriscreen) 0 | dopaminergic neuron differentiation score (ReNCell VM [2]; library: LOPAC) 0 | dopaminergic neuron differentiation score (ReNCell VM [2]; library: Prestwick) 0 | dopaminergic neuron differentiation score (ReNCell VM [2]; library: Tocriscreen) 0

C=C(C)[C@H]1CN[C@H](C(=O)O)[C@H]1CC(=O)O [Kainic acid]
inactive: neuronal differentiation score (ReNCell VM [1]; library: LOPAC) 0 | neuronal differentiation score (ReNCell VM [1]; library: Phytochemical) 0 | neuronal differentiation score (ReNCell VM [1]; library: Tocriscreen) 0 | dopaminergic neuron differentiation score (ReNCell VM [2]; library: LOPAC) 0 | dopaminergic neuron differentiation score (ReNCell VM [2]; library: Phytochemical) 0 | dopaminergic neuron differentiation score (ReNCell VM [2]; library: Tocriscreen) 0

COc1ccc(C(=O)N2CCCC2=O)cc1 [Aniracetam]
inactive: neuronal differentiation score (ReNCell VM [1]; library: LOPAC) 0 | neuronal differentiation score (ReNCell VM [1]; library: Prestwick) 0 | neuronal differentiation score (ReNCell VM [1]; library: Tocriscreen) 0 | dopaminergic neuron differentiation score (ReNCell VM [2]; library: LOPAC) 0 | dopaminergic neuron differentiation score (ReNCell VM [2]; library: Prestwick) 0 | dopaminergic neuron differentiation score (ReNCell VM [2]; library: Tocriscreen) 0

CC(C)c1cccc(C(C)C)c1O [Propofol]
inactive: neuronal differentiation score (ReNCell VM [1]; library: LOPAC) 0 | neuronal differentiation score (ReNCell VM [1]; library: Prestwick) 0 | dopaminergic neuron differentiation score (ReNCell VM [2]; library: LOPAC) 0 | dopaminergic neuron differentiation score (ReNCell VM [2]; library: Prestwick) 0

CN1C(=O)CCS(=O)(=O)C1c1ccc(Cl)cc1 (stereo not given) [Chlormezanone]
inactive: neuronal differentiation score (ReNCell VM [1]; library: LOPAC) 0 | neuronal differentiation score (ReNCell VM [1]; library: Prestwick) 0 | neuronal differentiation score (ReNCell VM [1]; library: Tocriscreen) 0 | dopaminergic neuron differentiation score (ReNCell VM [2]; library: LOPAC) 0 | dopaminergic neuron differentiation score (ReNCell VM [2]; library: Prestwick) 0 | dopaminergic neuron differentiation score (ReNCell VM [2]; library: Tocriscreen) 0
